According to publication PMC8329784:
No constants are given. Whether binding was seen depends on the method and setting. In cells and extracts the contact can be indirect. Some binding calls cover weakened binding; strength is not graded here.

By UniProt entry, the sequences of proteins in these tests, tags left out.
UniProt Q16665: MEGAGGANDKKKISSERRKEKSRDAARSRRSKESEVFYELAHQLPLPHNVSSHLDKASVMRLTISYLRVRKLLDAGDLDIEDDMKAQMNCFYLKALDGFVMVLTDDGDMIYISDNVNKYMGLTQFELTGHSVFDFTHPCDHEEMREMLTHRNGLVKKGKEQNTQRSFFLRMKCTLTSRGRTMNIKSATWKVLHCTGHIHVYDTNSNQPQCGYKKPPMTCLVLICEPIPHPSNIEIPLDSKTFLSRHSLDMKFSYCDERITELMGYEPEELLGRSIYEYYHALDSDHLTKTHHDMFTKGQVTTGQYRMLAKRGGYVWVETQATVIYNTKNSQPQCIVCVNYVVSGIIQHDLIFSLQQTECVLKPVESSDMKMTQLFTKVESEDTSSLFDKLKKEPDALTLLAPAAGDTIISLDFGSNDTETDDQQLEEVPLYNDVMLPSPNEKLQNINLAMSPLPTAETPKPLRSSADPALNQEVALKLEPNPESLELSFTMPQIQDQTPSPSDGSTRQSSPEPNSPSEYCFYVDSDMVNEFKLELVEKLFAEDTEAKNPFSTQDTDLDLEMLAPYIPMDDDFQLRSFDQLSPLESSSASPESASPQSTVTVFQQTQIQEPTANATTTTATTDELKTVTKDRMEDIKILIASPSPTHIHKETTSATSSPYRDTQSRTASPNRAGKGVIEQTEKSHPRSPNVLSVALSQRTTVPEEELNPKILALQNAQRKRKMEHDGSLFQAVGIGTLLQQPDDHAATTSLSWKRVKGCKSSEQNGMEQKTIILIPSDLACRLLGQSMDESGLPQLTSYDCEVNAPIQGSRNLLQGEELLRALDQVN

Target: T1, friend leukemia integration 1 (FLI1) (human (endogenous in EA.hy926)) (UniProt Q01543)
T1 sequence: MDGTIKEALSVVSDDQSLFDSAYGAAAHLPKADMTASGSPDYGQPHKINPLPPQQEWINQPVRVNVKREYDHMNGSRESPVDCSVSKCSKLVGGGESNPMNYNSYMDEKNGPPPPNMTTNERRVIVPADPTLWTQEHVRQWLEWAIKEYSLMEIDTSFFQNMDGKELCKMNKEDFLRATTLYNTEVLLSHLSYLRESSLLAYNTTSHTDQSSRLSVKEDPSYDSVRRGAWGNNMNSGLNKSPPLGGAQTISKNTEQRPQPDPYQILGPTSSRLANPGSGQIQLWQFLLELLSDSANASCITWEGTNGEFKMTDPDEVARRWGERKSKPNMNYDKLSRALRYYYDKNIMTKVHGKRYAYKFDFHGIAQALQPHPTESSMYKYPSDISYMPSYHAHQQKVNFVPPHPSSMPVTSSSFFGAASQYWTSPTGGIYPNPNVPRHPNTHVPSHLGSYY
Test: co-IP; EA.hy926 cells with or without 16 h of hypoxia (1% O2); NP40 lysate, 1 mg protein, 1 μg anti‐FLI1 monoclonal antibody (MA1‐196) or homologous IgG overnight at 4 °C, Dynabeads Protein A, western blot for FLI1 and HIF‐1α

binding: binds
Substance: hypoxia‐inducible factor 1α (HIF‐1α) (from UniProt Q16665 1-826)
